Experimental data from paper PMC3325275.

Sequences of proteins named here, by UniProt entry; tags and fusion partners are left off. A line that says so, or that is headed by a name, gives the form on record, which may keep a tag or linker.
UniProt P60849, other isoform, or with tags, fused parts or gaps: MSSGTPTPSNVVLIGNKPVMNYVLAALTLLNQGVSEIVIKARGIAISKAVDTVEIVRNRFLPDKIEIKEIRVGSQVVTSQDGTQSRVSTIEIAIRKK

What was measured:
Experiment in all cases: SPR
[1] = target: T1, Mth10b T77R (Methanobacterium thermoautotrophicum ΔH) (UniProt O27527); settings: 0.1 M NaCl, only 18.0 RU at 100 uM; SPR (BIAcore 3000, SA chip): 20 mM Tris, 1 mM EDTA, 0.005% Tween20, pH 7.5, with 0, 0.1 or 0.3 M NaCl, 25°C; recombinant protein; residues 1-91; label: 5'-biotin on forward strand; probe letters rebuilt from the primers and the genome
T1 sequence (looked up): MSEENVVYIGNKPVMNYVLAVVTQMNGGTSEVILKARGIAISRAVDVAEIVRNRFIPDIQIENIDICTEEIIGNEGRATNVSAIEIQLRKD

[2] = target: T2, Mth10b N11KI39RT77R (Methanobacterium thermoautotrophicum ΔH) (UniProt O27527); settings: 0.3 M NaCl, high cooperativity; SPR (BIAcore 3000, SA chip): 20 mM Tris, 1 mM EDTA, 0.005% Tween20, pH 7.5, with 0, 0.1 or 0.3 M NaCl, 25°C; recombinant …; residues 1-91; label: 5'-biotin on forward strand; probe letters rebuilt from the primers and the genome
T2 sequence (looked up): T1 sequence (looked up) with N11K, I39R

[3] = target: Sso10b wild type (Sulfolobus solfataricus) (UniProt P60849); settings: 0.3 M NaCl, about 120 RU at 1 uM, non-specific chip interaction; SPR (BIAcore 3000, SA chip): 20 mM Tris, 1 mM EDTA, 0.005% Tween20, pH 7.5, with 0, 0.1 or 0.3 M NaCl, 25°C; recombinant protein; label: 5'-biotin on forward strand; probe letters rebuilt from the primers and the genome
[4] = target: Sso10b K16NR44IR83T (Sulfolobus solfataricus) (UniProt P60849); settings: 0.3 M NaCl, almost no response at 100 uM, non-specific chip interaction; SPR (BIAcore 3000, SA chip): 20 mM Tris, 1 mM EDTA, 0.005% Tween20, pH 7.5, with 0, 0.1 or 0.3 M NaCl, 25°C; recombinant protein; label: 5'-biotin on forward strand; probe letters rebuilt from the primers and the genome

In the case of “GTGATGTCAGAGGAGAATGTAGTATACATCGGAAACAAGCCTGTAATGAACTATGTTCTGGCCGTGGTTACTCAGATGAACGGTGGGACCAGTGAAGTGATCCTTAAAGC (double strand) [110 bp mth10b fragment]”, the binding result [1] is reported as “binds more weakly”, the binding signal (fold lower affinity than in 0.1 M NaCl) [2] is reported as 70 and the binding result [3] is reported as “binds”. “GTGATGTCAGAGGAGAATGTAGTATACATCGGAAACAAGCCTGTAATGAACTATGTTCTGGCCGTGGTTACTCAGATGAACGGTGGGACCAGTGAAGTGATCCTTAAAGC (double strand) [110 bp mth10b fragment]”: no binding [4].

Substitutions are numbered along the chain they refer to. Construct, isoform or probe ends are uncertain for at least one entry. For some of these results: No signal at the amounts used counts as a negative. For some of these results: The comparison behind a weaker result is the experiment's own reference, which may not be listed here. For some of these results: Tags and fusion partners may be left off the protein sequences shown. For some of these results: Whether high values mean tight binding is not given here for every scale.
